Experimental data: PubChem BioAssay AID504764 (Drosophila RNAi Screening Center, 2011)

Screen: 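Genome-wide screen for regulators of Notch-driven gene expression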 (primary screen)
System: Drosophila Kc167 cells
Reagent: long dsRNA against Drosophila genes
Timing: about 5 days (4 days dsRNA, then 24 h after transfection)
Conditions: transfection of constitutively active membrane-tethered Notch lacking the extracellular domain, read 24 h later
Measured: 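Firefly luciferase from an E(spl)m3 reporter with active Notch, plus control-promoter and uninduced reporter wells for normalisation; unnormalised counts, duplicate wells a and b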
Reading the numbers: induced reporter light, run 1, well a and induced reporter light, run 1, well b: higher = more light from the Notch target reporter with active Notch; control promoter light, run 1, well a and control promoter light, run 1, well b: higher = more light from the viral control promoter (cell number, transfection, viability); uninduced reporter light, run 1, well a: higher = more light from the Notch target reporter without active Notch
Hit rule: 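Wells with low control signal or poorly matching duplicates excluded; duplicates averaged; per source plate, z beyond ±2 for induced/control log2 ratio or beyond ±1.8 for induced/uninduced marks a hit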
Calls: active = modifier hit (raised or lowered Notch signal); inactive = not a hit
The deposit covers about 22,000 reagents; below is an unselected part of those that have a named target and a result. Over the whole deposit, 403 (1.9%) were called active. 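Unnormalised raw counts per well; ratio z-scores behind the hit calls and whether each hit raises or lowers signal are not deposited.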 Not stated in the record: the amount of reagent.

en [DRSC07609]
- induced reporter light, run 1, well a: 1.09e5
- induced reporter light, run 1, well b: 1.22e5
- control promoter light, run 1, well a: 1.50e5
- control promoter light, run 1, well b: 1.52e5
- uninduced reporter light, run 1, well a: 11580
- activity call: inactive

Cyp4g15 [DRSC20240]
- induced reporter light, run 1, well a: 1.24e5
- induced reporter light, run 1, well b: 1.27e5
- control promoter light, run 1, well a: 2.47e5
- control promoter light, run 1, well b: 2.72e5
- uninduced reporter light, run 1, well a: 8305
- activity call: inactive

vri [DRSC03633]
- induced reporter light, run 1, well a: 13215
- induced reporter light, run 1, well b: 10140
- control promoter light, run 1, well a: 11970
- control promoter light, run 1, well b: 11885
- uninduced reporter light, run 1, well a: 5045
- activity call: inactive

CG17698 [DRSC11907]
- induced reporter light, run 1, well a: 1.06e5
- induced reporter light, run 1, well b: 92730
- control promoter light, run 1, well a: 84775
- control promoter light, run 1, well b: 69900
- uninduced reporter light, run 1, well a: 7820
- activity call: inactive

PolD2 [DRSC08147]
- induced reporter light, run 1, well a: 72940
- induced reporter light, run 1, well b: 80105
- control promoter light, run 1, well a: 1.36e5
- control promoter light, run 1, well b: 1.85e5
- uninduced reporter light, run 1, well a: 5128
- activity call: inactive

CG12239 [DRSC17832]
- induced reporter light, run 1, well a: 1.40e5
- induced reporter light, run 1, well b: 1.26e5
- control promoter light, run 1, well a: 1.69e5
- control promoter light, run 1, well b: 1.55e5
- uninduced reporter light, run 1, well a: 9810
- activity call: inactive

Hr38 [DRSC03345]
- induced reporter light, run 1, well a: 32005
- induced reporter light, run 1, well b: 23880
- control promoter light, run 1, well a: 14480
- control promoter light, run 1, well b: 18880
- uninduced reporter light, run 1, well a: 2545
- activity call: inactive

CG9396 [DRSC16487]
- induced reporter light, run 1, well a: 66760
- induced reporter light, run 1, well b: 74090
- control promoter light, run 1, well a: 64690
- control promoter light, run 1, well b: 48855
- uninduced reporter light, run 1, well a: 5780
- activity call: inactive

klar [DRSC08718]
- induced reporter light, run 1, well a: 95215
- induced reporter light, run 1, well b: 90110
- control promoter light, run 1, well a: 1.74e5
- control promoter light, run 1, well b: 2.06e5
- uninduced reporter light, run 1, well a: 7190
- activity call: inactive

An excerpt taken from the entries so far, as a working copy:
PolD2 [DRSC08147]
- induced reporter light, run 1, well a: 72940
- induced reporter light, run 1, well b: 80105
- control promoter light, run 1, well a: 1.36e5
- control promoter light, run 1, well b: 1.85e5
- uninduced reporter light, run 1, well a: 5128
- activity call: inactive

CG12239 [DRSC17832]
- induced reporter light, run 1, well a: 1.40e5
- induced reporter light, run 1, well b: 1.26e5
- control promoter light, run 1, well a: 1.69e5
- control promoter light, run 1, well b: 1.55e5
- uninduced reporter light, run 1, well a: 9810
- activity call: inactive

The listing continues:
fs(1)Ya [DRSC18776]
- induced reporter light, run 1, well a: 59755
- induced reporter light, run 1, well b: 71405
- control promoter light, run 1, well a: 62070
- control promoter light, run 1, well b: 65380
- uninduced reporter light, run 1, well a: 9330
- activity call: inactive

Rm62 [DRSC12365]
- induced reporter light, run 1, well a: 81450
- induced reporter light, run 1, well b: 78950
- control promoter light, run 1, well a: 35930
- control promoter light, run 1, well b: 37445
- uninduced reporter light, run 1, well a: 8445
- activity call: inactive

CG3713 [DRSC18648]
- induced reporter light, run 1, well a: 1.49e5
- induced reporter light, run 1, well b: 1.50e5
- control promoter light, run 1, well a: 2.46e5
- control promoter light, run 1, well b: 2.05e5
- uninduced reporter light, run 1, well a: 10280
- activity call: inactive

CG3594 [DRSC04393]
- induced reporter light, run 1, well a: 1.76e5
- induced reporter light, run 1, well b: 1.82e5
- control promoter light, run 1, well a: 1.34e5
- control promoter light, run 1, well b: 1.47e5
- uninduced reporter light, run 1, well a: 13955
- activity call: inactive

CG3594 [DRSC21959]
- activity call: inactive

KLHL18 [DRSC15496]
- induced reporter light, run 1, well a: 1.48e5
- induced reporter light, run 1, well b: 1.25e5
- control promoter light, run 1, well a: 93005
- control promoter light, run 1, well b: 93875
- uninduced reporter light, run 1, well a: 13760
- activity call: inactive

RhoGAP16F [DRSC20025]
- induced reporter light, run 1, well a: 1.06e5
- induced reporter light, run 1, well b: 1.06e5
- control promoter light, run 1, well a: 98480
- control promoter light, run 1, well b: 66745
- uninduced reporter light, run 1, well a: 9755
- activity call: inactive

tko [DRSC18844]
- induced reporter light, run 1, well a: 1.16e5
- induced reporter light, run 1, well b: 1.09e5
- control promoter light, run 1, well a: 1.64e5
- control promoter light, run 1, well b: 2.32e5
- uninduced reporter light, run 1, well a: 7430
- activity call: inactive

ast [DRSC00803]
- induced reporter light, run 1, well a: 1.33e5
- induced reporter light, run 1, well b: 1.11e5
- control promoter light, run 1, well a: 84700
- control promoter light, run 1, well b: 96955
- uninduced reporter light, run 1, well a: 8475
- activity call: inactive

Ctr9 [DRSC08562]
- induced reporter light, run 1, well a: 70440
- induced reporter light, run 1, well b: 69605
- control promoter light, run 1, well a: 1.03e5
- control promoter light, run 1, well b: 1.03e5
- uninduced reporter light, run 1, well a: 4835
- activity call: inactive

NFAT [DRSC18991]
- induced reporter light, run 1, well a: 86395
- induced reporter light, run 1, well b: 87170
- control promoter light, run 1, well a: 41920
- control promoter light, run 1, well b: 43160
- uninduced reporter light, run 1, well a: 8435
- activity call: inactive

NFAT [DRSC19393]
- induced reporter light, run 1, well a: 42305
- induced reporter light, run 1, well b: 36515
- control promoter light, run 1, well a: 36880
- control promoter light, run 1, well b: 34965
- uninduced reporter light, run 1, well a: 3180
- activity call: active

CG4691 [DRSC01950]
- induced reporter light, run 1, well a: 2.06e5
- induced reporter light, run 1, well b: 2.07e5
- control promoter light, run 1, well a: 1.22e5
- control promoter light, run 1, well b: 1.34e5
- uninduced reporter light, run 1, well a: 14785
- activity call: inactive

Oseg2 [DRSC08343]
- induced reporter light, run 1, well a: 1.02e5
- induced reporter light, run 1, well b: 93310
- control promoter light, run 1, well a: 1.82e5
- control promoter light, run 1, well b: 1.46e5
- uninduced reporter light, run 1, well a: 7160
- activity call: inactive

dare [DRSC07602]
- induced reporter light, run 1, well a: 1.14e5
- induced reporter light, run 1, well b: 1.11e5
- control promoter light, run 1, well a: 1.36e5
- control promoter light, run 1, well b: 1.04e5
- uninduced reporter light, run 1, well a: 10730
- activity call: inactive
